Assay results as given in article PMC4154870, “The Cofilin Phosphatase Slingshot Homolog 1 (SSH1) Links NOD1 Signaling to Actin Remodeling” (PLoS Pathogens, 2014).
Results are given in words; binding and its absence hold for the method and conditions named. In cells and extracts the contact can be indirect. Some entries that bind do so weakly or less than the wild type. Where a sequence is shown, tags or fusion partners need not be part of it.

Chains of the proteins cited; added tags and fusions are not shown.
UniProt Q9HC29: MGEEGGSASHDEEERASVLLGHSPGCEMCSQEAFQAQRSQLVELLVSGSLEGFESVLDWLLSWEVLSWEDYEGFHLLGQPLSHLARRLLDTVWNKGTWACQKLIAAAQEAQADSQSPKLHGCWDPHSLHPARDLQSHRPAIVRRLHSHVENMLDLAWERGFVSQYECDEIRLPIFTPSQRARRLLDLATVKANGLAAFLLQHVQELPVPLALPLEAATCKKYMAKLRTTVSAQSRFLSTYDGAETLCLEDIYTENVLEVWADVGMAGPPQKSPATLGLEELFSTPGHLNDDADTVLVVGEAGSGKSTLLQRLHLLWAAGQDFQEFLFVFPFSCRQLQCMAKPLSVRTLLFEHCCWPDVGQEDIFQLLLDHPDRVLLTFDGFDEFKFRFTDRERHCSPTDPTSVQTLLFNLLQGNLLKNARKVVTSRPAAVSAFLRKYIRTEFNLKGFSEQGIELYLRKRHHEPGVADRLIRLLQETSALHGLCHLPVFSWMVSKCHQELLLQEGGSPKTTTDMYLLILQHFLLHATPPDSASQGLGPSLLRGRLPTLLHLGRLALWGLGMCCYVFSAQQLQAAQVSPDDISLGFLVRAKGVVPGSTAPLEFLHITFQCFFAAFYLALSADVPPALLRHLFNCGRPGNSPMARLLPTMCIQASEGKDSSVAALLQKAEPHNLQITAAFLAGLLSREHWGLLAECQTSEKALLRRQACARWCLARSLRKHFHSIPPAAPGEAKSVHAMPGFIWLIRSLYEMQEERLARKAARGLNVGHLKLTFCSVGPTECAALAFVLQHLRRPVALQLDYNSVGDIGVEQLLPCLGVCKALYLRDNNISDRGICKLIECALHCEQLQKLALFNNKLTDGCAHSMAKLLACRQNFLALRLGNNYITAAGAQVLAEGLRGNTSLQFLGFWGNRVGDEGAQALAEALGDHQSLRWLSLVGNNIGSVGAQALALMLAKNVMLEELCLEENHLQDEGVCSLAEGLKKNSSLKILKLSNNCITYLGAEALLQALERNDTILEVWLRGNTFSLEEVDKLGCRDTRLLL

T1: Flag-SSH1 (slingshot homolog 1, cofilin phosphatase) (human) (UniProt Q8WYL5)
T1 sequence: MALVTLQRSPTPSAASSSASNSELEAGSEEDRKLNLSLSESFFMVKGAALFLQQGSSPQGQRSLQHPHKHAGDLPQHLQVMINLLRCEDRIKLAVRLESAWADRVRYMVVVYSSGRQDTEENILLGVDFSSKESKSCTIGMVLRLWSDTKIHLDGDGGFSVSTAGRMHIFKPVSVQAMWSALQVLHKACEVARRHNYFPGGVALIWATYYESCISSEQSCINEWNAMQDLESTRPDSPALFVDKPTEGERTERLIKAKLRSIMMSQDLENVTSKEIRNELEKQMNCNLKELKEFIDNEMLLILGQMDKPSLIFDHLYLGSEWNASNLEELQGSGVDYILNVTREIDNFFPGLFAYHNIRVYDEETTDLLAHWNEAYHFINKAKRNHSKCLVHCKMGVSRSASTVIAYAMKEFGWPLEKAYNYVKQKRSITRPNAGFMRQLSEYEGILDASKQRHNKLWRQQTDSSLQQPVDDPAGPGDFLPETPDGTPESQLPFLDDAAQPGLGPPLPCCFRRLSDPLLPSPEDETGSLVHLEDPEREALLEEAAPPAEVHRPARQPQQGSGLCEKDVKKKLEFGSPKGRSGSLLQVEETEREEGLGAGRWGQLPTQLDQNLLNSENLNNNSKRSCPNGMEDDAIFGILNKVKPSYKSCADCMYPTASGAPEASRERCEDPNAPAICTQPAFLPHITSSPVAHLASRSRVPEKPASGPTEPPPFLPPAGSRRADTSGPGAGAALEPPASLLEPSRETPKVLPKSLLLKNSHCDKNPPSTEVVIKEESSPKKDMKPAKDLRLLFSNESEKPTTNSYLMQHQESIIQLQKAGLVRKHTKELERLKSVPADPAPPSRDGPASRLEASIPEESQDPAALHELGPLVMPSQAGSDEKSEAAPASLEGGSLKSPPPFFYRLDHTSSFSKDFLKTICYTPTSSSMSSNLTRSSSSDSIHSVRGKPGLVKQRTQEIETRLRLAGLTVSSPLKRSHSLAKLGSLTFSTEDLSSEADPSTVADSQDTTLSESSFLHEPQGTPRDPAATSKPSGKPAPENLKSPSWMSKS

T2: SSH1 C393S (phosphatase-dead mutant) (human) (UniProt Q8WYL5)
T2 sequence: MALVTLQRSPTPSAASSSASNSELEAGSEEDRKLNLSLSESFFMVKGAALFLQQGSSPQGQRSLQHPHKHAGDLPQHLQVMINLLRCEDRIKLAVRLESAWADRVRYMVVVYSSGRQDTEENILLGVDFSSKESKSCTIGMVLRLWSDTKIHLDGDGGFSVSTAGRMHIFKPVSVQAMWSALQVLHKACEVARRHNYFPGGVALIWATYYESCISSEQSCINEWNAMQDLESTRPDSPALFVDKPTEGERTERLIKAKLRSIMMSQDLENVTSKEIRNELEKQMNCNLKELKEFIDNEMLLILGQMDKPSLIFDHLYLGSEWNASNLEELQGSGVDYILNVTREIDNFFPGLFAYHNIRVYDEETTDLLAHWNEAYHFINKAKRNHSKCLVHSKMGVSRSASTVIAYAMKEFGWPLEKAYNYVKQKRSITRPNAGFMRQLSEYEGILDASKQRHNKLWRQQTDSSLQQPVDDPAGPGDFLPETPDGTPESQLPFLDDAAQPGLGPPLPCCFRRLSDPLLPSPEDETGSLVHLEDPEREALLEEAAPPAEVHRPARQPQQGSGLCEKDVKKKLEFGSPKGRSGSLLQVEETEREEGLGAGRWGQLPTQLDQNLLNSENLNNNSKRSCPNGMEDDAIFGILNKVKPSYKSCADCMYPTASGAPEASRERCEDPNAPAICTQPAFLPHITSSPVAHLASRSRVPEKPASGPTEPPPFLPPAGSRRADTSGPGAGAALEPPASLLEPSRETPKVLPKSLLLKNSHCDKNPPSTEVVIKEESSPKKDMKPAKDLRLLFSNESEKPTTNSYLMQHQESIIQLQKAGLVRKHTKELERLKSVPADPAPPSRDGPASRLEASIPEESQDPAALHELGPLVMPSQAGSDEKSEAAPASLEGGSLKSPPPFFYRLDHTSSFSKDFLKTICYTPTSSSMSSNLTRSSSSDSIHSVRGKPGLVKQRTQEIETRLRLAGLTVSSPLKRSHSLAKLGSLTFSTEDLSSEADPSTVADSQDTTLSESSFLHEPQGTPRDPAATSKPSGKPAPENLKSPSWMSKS

T3: GFP-SSH1 (human, UniProt Q8WYL5 1-1049)
T3 construct: Slingshot homolog 1 (SSH1); also called EGFP-SSH1; WT SSH1; source: HeLa, transiently transfected, in fixed cells
T3 sequence (looked up): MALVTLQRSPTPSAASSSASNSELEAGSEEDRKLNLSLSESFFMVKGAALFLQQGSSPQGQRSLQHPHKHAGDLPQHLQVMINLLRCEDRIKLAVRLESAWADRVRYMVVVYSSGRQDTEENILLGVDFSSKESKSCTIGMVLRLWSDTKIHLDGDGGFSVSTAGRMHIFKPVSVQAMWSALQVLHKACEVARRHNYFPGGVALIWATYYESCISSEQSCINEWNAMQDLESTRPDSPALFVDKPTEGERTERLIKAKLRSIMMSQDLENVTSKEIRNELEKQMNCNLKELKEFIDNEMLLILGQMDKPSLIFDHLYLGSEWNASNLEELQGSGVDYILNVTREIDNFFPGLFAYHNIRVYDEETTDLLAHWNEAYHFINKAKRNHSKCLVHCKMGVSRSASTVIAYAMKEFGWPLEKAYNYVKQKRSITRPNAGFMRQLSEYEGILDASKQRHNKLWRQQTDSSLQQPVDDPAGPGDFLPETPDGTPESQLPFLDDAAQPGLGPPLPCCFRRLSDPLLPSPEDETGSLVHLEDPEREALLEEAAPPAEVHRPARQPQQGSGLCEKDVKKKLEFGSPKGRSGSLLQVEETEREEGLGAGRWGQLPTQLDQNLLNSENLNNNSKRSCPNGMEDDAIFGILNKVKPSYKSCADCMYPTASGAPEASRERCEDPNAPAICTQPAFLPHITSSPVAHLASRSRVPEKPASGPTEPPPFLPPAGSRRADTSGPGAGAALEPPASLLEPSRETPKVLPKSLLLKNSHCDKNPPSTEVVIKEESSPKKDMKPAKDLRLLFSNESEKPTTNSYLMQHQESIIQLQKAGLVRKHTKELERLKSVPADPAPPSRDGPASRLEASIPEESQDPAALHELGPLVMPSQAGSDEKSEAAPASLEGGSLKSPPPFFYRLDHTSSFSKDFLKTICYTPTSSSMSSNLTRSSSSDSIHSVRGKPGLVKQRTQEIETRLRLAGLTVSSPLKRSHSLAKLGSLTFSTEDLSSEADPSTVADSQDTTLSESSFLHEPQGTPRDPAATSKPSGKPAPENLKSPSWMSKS


Assays:
[1] = biological target: T1, Flag-SSH1 (slingshot homolog 1, cofilin phosphatase) (human); experiment: co-IP; HEK293T cells transiently transfected with SSH1 and NOD1 or NOD2 plasmids for 24 h; Flag-SSH1 precipitated with a Flag-specific antibody; also a kinetic with 500 nM TriDAP for the indicated times
[2] = biological target: T2, SSH1 C393S (phosphatase-dead mutant) (human); experiment: proximity ligation; in situ PLA (Duolink) in transiently transfected HeLa cells, fixed 24 h after transfection; rabbit GFP-specific and mouse Flag-specific primary antibodies; spot area per cell quantified by automated microscopy
GFP-SSH1 = biological target: T3, GFP-SSH1; experiment: as above

Row | Molecule | binding [1] | binding [2] | binding (GFP-SSH1)
1 | NOD2 (from UniProt Q9HC29 1-1040) (receptor) | binds |  | 
2 | NOD1 (myc tagged human NOD1) (receptor, UniProt Q9Y239 1-953) MEEQGHSEMEIIPSESHPHIQLLKSNRELLVTHIRNTQCLVDNLLKNDYFSAEDAEIVCACPTQPDKVRKILDLVQSKGEEVSEFFLYLLQQLADAYVDLRPWLLEIGFSPSLLTQSKVVVNTDPVSRYTQQLRHHLGRDSKFVLCYAQKEELLLEEIYMDTIMELVGFSNESLGSLNSLACLLDHTTGILNEQGETIFILGDAGVGKSMLLQRLQSLWATGRLDAGVKFFFHFRCRMFSCFKESDRLCLQDLLFKHYCYPERDPEEVFAFLLRFPHVALFTFDGLDELHSDLDLSRVPDSSCPWEPAHPLVLLANLLSGKLLKGASKLLTARTGIEVPRQFLRKKVLLRGFSPSHLRAYARRMFPERALQDRLLSQLEANPNLCSLCSVPLFCWIIFRCFQHFRAAFEGSPQLPDCTMTLTDVFLLVTEVHLNRMQPSSLVQRNTRSPVETLHAGRDTLCSLGQVAHRGMEKSLFVFTQEEVQASGLQERDMQLGFLRALPELGPGGDQQSYEFFHLTLQAFFTAFFLVLDDRVGTQELLRFFQEWMPPAGAATTSCYPPFLPFQCLQGSGPAREDLFKNKDHFQFTNLFLCGLLSKAKQKLLRHLVPAAALRRKRKALWAHLFSSLRGYLKSLPRVQVESFNQVQAMPTFIWMLRCIYETQSQKVGQLAARGICANYLKLTYCNACSADCSALSFVLHHFPKRLALDLDNNNLNDYGVRELQPCFSRLTVLRLSVNQITDGGVKVLSEELTKYKIVTYLGLYNNQITDVGARYVTKILDECKGLTHLKLGKNKITSEGGKYLALAVKNSKSISEVGMWGNQVGDEGAKAFAEALRNHPSLTTLSLASNGISTEGGKSLARALQQNTSLEILWLTQNELNDEVAESLAEMLKVNQTLKHLWLIQNQITAKGTAQLADALQSNTGITEICLNGNLIKPEEAKVYEDEKRIICF | binds |  | 
3 | Flag-NOD1 (receptor, human, UniProt Q9Y239 1-953, looked up, NOD1; the Flag-tagged plasmid is not described in the methods; source: HeLa, transiently transfected, in fixed cells) MEEQGHSEMEIIPSESHPHIQLLKSNRELLVTHIRNTQCLVDNLLKNDYFSAEDAEIVCACPTQPDKVRKILDLVQSKGEEVSEFFLYLLQQLADAYVDLRPWLLEIGFSPSLLTQSKVVVNTDPVSRYTQQLRHHLGRDSKFVLCYAQKEELLLEEIYMDTIMELVGFSNESLGSLNSLACLLDHTTGILNEQGETIFILGDAGVGKSMLLQRLQSLWATGRLDAGVKFFFHFRCRMFSCFKESDRLCLQDLLFKHYCYPERDPEEVFAFLLRFPHVALFTFDGLDELHSDLDLSRVPDSSCPWEPAHPLVLLANLLSGKLLKGASKLLTARTGIEVPRQFLRKKVLLRGFSPSHLRAYARRMFPERALQDRLLSQLEANPNLCSLCSVPLFCWIIFRCFQHFRAAFEGSPQLPDCTMTLTDVFLLVTEVHLNRMQPSSLVQRNTRSPVETLHAGRDTLCSLGQVAHRGMEKSLFVFTQEEVQASGLQERDMQLGFLRALPELGPGGDQQSYEFFHLTLQAFFTAFFLVLDDRVGTQELLRFFQEWMPPAGAATTSCYPPFLPFQCLQGSGPAREDLFKNKDHFQFTNLFLCGLLSKAKQKLLRHLVPAAALRRKRKALWAHLFSSLRGYLKSLPRVQVESFNQVQAMPTFIWMLRCIYETQSQKVGQLAARGICANYLKLTYCNACSADCSALSFVLHHFPKRLALDLDNNNLNDYGVRELQPCFSRLTVLRLSVNQITDGGVKVLSEELTKYKIVTYLGLYNNQITDVGARYVTKILDECKGLTHLKLGKNKITSEGGKYLALAVKNSKSISEVGMWGNQVGDEGAKAFAEALRNHPSLTTLSLASNGISTEGGKSLARALQQNTSLEILWLTQNELNDEVAESLAEMLKVNQTLKHLWLIQNQITAKGTAQLADALQSNTGITEICLNGNLIKPEEAKVYEDEKRIICF |  | binds | binds
